The assay addresses Rpl42 (yeast (endogenous in the purified pre-ribosomes)) (UniProt P0CX27). The assay can be described thus: cryo-EM structure.

By UniProt entry, the sequences of proteins in these tests, tags left out.
UniProt P0CX27: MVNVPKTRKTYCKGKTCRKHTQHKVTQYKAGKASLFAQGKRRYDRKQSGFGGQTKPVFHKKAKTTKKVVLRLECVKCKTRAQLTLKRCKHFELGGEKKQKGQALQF
UniProt P41819: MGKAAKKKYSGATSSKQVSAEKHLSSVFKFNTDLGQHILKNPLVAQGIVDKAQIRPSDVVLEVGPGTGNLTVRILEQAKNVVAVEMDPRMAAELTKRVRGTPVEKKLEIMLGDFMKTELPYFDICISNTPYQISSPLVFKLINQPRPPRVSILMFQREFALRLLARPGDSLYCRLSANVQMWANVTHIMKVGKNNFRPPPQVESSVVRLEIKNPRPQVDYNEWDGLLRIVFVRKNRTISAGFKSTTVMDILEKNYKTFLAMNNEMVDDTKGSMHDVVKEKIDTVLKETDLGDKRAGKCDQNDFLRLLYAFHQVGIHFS

No constants are given. Whether binding was seen depends on the method and setting. Some entries that bind do so weakly or less than the wild type.

For the substance Dim1 (from UniProt P41819 1-318), the binding result is reported as “binds”.

For the origin of these results see doi:10.1101/617910.
